Results as given in patent US20260166084A1, “NOVEL DRUG-INDUCIBLE DEGRADATION TAGS” (THE INSTITUTE OF CANCER RESEARCH: ROYAL CANCER HOSPITAL, priority 2022, published 2026).
No constants are given. Whether binding was seen depends on the method and setting. Some results given as binding are weak or reduced against the parent protein; the word gives no strength. Tags and fused reporters may be left off the sequences shown.

Chains of the proteins cited; added tags and fusions are not shown. Lines headed by an entry give the natural chain unless they say otherwise; changes in a name come on top.
UniProt Q96SW2: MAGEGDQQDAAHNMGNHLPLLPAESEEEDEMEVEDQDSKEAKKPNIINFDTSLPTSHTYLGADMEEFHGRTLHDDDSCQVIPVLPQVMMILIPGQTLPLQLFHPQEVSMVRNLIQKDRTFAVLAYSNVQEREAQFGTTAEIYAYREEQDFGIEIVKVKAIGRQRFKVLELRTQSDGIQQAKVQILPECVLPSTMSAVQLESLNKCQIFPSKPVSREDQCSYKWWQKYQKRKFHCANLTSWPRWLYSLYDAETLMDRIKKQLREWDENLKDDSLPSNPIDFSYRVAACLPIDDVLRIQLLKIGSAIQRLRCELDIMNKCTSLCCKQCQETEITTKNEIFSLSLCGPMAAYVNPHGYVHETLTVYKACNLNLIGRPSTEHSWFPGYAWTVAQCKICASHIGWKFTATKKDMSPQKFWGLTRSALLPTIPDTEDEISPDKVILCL

How the values were obtained:
[1] = target: complex formed between CRBN/DDB1 and lenalidomide (UniProt Q96SW2); experiment: TR-FRET displacement of Sulfo-Cy5 Aiolos peptide probe from 5 nM CRBN/DDB1 with 10 uM lenalidomide
[2] = target: complex formed between CRBN/DDB1 and pomalidomide (UniProt Q96SW2); experiment: TR-FRET displacement of Sulfo-Cy5 Aiolos peptide probe from 5 nM CRBN/DDB1 with 10 uM pomalidomide
[3] = target: complex formed between CRBN/DDB1 and iberdomide (UniProt Q96SW2); experiment: TR-FRET displacement of Sulfo-Cy5 Aiolos peptide probe from 5 nM CRBN/DDB1 with 10 uM iberdomide
[4] = target: complex formed between CRBN/DDB1 and iberdomide (UniProt Q96SW2); experiment: size exclusion chromatography with SDS-PAGE of fractions, in the presence of iberdomide
[5] = target: complex formed between CRBN/DDB1 and iberdomide (UniProt Q96SW2); experiment: size exclusion chromatography with SDS-PAGE of fractions: 15 uM CRBN/DDB1, 50 uM iTAG2, 100 uM iberdomide

Measured: binding

B1: iTAG1 (DCD23) (designed binder)
chain: PNVLMVHKRSHTGERPLQCEICGFTCRQKGNLLRHIKLHSGEKPFKCHLCNYACRRRDAL
binds: [1] | [2] | [3]

B2: iTAG2 (DCD23mut) (designed binder)
chain: PNVLMVHNESHTGEIPLQCEICGFTCEQAGNLLNHIELHSGEIPFKCHLCNYACRRRDAL
binds: [1] | [2] | [4] | [5] | [3]
